The values below come from PubChem BioAssay AID624256 (NMMLSC, 2012).

Some of the results follow.

This assay can be described thus: induction of myeloid progenitor differentiation, primary screen, cell-based, flow cytometry, MLPCN library (AID 624256).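 Also: cells exposed to compound for four days before flow analysis.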 The note with it: ER-HoxA9 myeloid progenitors, lysozyme-GFP differentiation, measured here: differentiation confirmed by MAC1 staining, at 10 µM, stronger effect = higher value. (In general: In flow cytometry, cells or beads pass a laser one at a time.)
`CCN(CC)CC(O)COC(=O)C(O)(c1ccccc1)C1CCCCC1` (configuration not stated): the GFP+ MAC1+ double positive amounted to 0.6%.

`CCc1ccc(OP(C)(=O)Nc2cccnc2)cc1` (configuration not stated) showed a GFP+ MAC1+ double positive of 1.1%. As to `O=[N+]([O-])c1cc([N+](=O)[O-])c(CCNc2ccccc2)c([N+](=O)[O-])c1`, the GFP+ MAC1+ double positive came out at 2.1%.

Turning to `CP(=O)(Oc1ccccc1)N1CCOC1=O` (configuration not stated), the GFP+ MAC1+ double positive was 0.6%. With `O=C(OCCCN1CCCC1)C(O)(c1ccccc1)C1CCCCC1` (configuration not stated) the figure was 0.2%. With `O=[N+]([O-])c1cccc2n[nH]nc12` the figure was 0.6%; with `CC(=O)N1C2C3N(C(C)=O)C1C1N(C(C)=O)C(C(N1C(C)=O)N3C(C)=O)N2C(C)=O`, 0.9%; with `COc1ccccc1OP(C)(=O)Nc1c(C)n(C)n(-c2ccccc2)c1=O` (configuration not stated), 0.7%. For the molecule `CP(=O)(Nc1ccc(Cl)cc1)Oc1ccc(F)cc1` (configuration not stated), the GFP+ MAC1+ double positive came to 11.8%. Under `CCN(/C(=N/P(=O)(N1CCOCC1)N1CCOCC1)N1CCOCC1)c1ccc(OC)cc1` stands 1.2%; under `C[N+]1=C2C=CC=CC=C2SC12C([N+](=O)[O-])=CC([N+](=O)[O-])=C[C-]2[N+](=O)[O-]` (configuration not stated), 0.2%; under `COc1ccccc1OP(C)(=O)Nc1ccccc1Br` (configuration not stated), 0.2%. As for `CC(C)(C)c1ccc(OP(C)(=O)O)cc1`, the GFP+ MAC1+ double positive is 0.9%.

In turn, `Nc1ccc([As](=O)(O)c2ccc(N)cc2)cc1` gave a GFP+ MAC1+ double positive of 0.6%. On to `CC1CCN(C(=O)Oc2c(Cl)cc(Cl)c3cccnc23)CC1`, for which the GFP+ MAC1+ double positive came to 1%. In turn, `c1cc(-c2nn[nH]n2)ccc1-c1nn[nH]n1` had a GFP+ MAC1+ double positive of 0.3%. Take `CN(C)C(=O)OCCc1n(C)cc[n+]1C`: the GFP+ MAC1+ double positive is 0.4%.

Molecule `CC(C)c1nc(Nc2ccccc2)n(P(=O)(N(C)C)N(C)C)n1` gave a GFP+ MAC1+ double positive of 1.5%. With `CC(C)=N/N=C(\N)N[N+](=O)[O-]` the figure was 0.2%; with `O=P1(N(CCCl)CCCl)OCCCS1` (configuration not stated), 1%.

`CP(=O)(OC12CC3CC(CC(C3)C1)C2)OC12CC3CC(CC(C3)C1)C2` had a GFP+ MAC1+ double positive of 1.8%. For the molecule `CCOC(=O)c1ccc(NP(C)(=O)Oc2ccc(Cl)cc2)cc1` (configuration not stated), the GFP+ MAC1+ double positive is 0.3%.

Turning to `CC(C)(C)C(=O)NC(Sc1ccncn1)C(Cl)(Cl)Cl` (configuration not stated), the GFP+ MAC1+ double positive stood at 0.5%. The molecule `O=C(O)CNc1ccc([As](=O)(O)O)cc1` returned a GFP+ MAC1+ double positive of 0.2%. As to `COC(=O)C1(C)COP(=O)(Nc2ccccc2)OC1` (configuration not stated), the GFP+ MAC1+ double positive was 0.8%. The molecule `O=[N+]([O-])c1cccc(NC2=NCC(CBr)S2)c1` (configuration not stated) yielded a GFP+ MAC1+ double positive of 0.9%. Turning to `O=P(Nc1nc2ccc(Cl)cc2s1)(c1ccccc1)c1ccccc1`, the GFP+ MAC1+ double positive stood at 0.4%. Under `Cc1cc(C)cc(OP(C)(=O)Nc2cccc(C(F)(F)F)c2)c1` (configuration not stated) stands 0.5%; under `CN(C)P(=O)(N(C)C)n1c(Nc2ccccc2)nnc1-c1ccccc1`, 1.7%.

In the case of `O=C1C(O)=C([N+](=O)[O-])C(=O)C(O)=C1[N+](=O)[O-]`, the GFP+ MAC1+ double positive was 1.1%. Under `CCCC1OP(N)(=O)OCC1CC` (configuration not stated) stands 0.6%; under `CC(=O)Nc1ccc([As](=O)(O)O)cc1`, 0.4%; under `O=C(O)c1ccccc1[As](=O)(O)O`, 0.7%. Under `COc1ccc(OP(C)(=O)Nc2ccccc2Br)cc1` (configuration not stated) stands 0.3%; under `COc1ccccc1OP(C)(=O)Nc1ccc(C)c(C)c1` (configuration not stated), 0.4%; under `Cc1ccc(NP(=O)(Oc2ccccc2F)Oc2ccccc2F)nc1`, 0.4%.

On to `CN(C(=O)Cc1ccc(Cl)c(Cl)c1)[C@H]1CCCC[C@@H]1N1CCCC1`, for which the GFP+ MAC1+ double positive turned out to be 3.2%.

On to `Cc1cc(SC(NC(=O)c2ccc(F)cc2)C(Cl)(Cl)Cl)ncn1` (configuration not stated), for which the GFP+ MAC1+ double positive stood at 0.3%.

Molecule `CCOP(=O)(Nc1ccccc1)OCC` came in with a GFP+ MAC1+ double positive of 0.2%. With `CCCCCCCCCCCCCCCC1C[N+](C)(C)CCOP(C)(=O)O1` (configuration not stated) the figure was 1.3%; with `CP(=O)(OCCOc1ccccc1)OCCOc1ccccc1`, 0.6%; with `Nc1cccc2ccc([As](=O)(O)O)cc12`, 1.5%. Under `CCN(N=Nc1nonc1N)c1nonc1N` stands 0.7%; under `Cc1ccc(N/C(=N/P(=O)(N2CCOCC2)N2CCOCC2)N2CCOCC2)cc1`, 0.7%. As for `CN(C(=O)Cc1ccc(Cl)c(Cl)c1)[C@H]1CCCC[C@H]1N1CCCC1`, the GFP+ MAC1+ double positive came to 2.7%.

`COc1ccccc1OP(C)(=O)Nc1ccc(Br)cc1` (configuration not stated) registered a GFP+ MAC1+ double positive of 0.3%. `NC(=O)c1cc([N+](=O)[O-])cc([N+](=O)[O-])c1N` came in with a GFP+ MAC1+ double positive of 0.4%. With `CN1CCCC(OC(=O)C(c2ccccc2)c2ccccc2)C1` (configuration not stated) the figure was 1.1%; with `Clc1ccc(Cl)c(NC2=NCC(CBr)S2)c1` (configuration not stated), 0.1%; with `CN(C)CCOC(=O)C(O)(c1ccccc1)C1CCCC1` (configuration not stated), 5.7%.

Molecule `Cc1ccc(OP(=O)(Nc2nccs2)Oc2ccc(C)cc2)cc1` displayed a GFP+ MAC1+ double positive of 0.1%. With `COc1ccccc1OP(=O)(Nc1ccc(C)cn1)Oc1ccccc1OC`, the GFP+ MAC1+ double positive amounted to 0.2%.

Turning to `COc1ccc(OP(C)(=O)Nc2ccccn2)cc1` (configuration not stated), the GFP+ MAC1+ double positive was 6.4%.

For the molecule `O=C(NC(Sc1ccncn1)C(Cl)(Cl)Cl)c1ccccc1` (configuration not stated), the GFP+ MAC1+ double positive is 0.5%. With `Oc1ccccc1CNc1ccccn1` the figure was 0.7%; with `Cc1c(NP(C)(=O)Oc2ccc(C(C)C)cc2)c(=O)n(-c2ccccc2)n1C` (configuration not stated), 0.2%; with `Nc1cc(N)c2nonc2c1[N+](=O)[O-]`, 0.5%. `CC(C)CC(=O)NC(Sc1ccc(Cl)cc1)C(Cl)(Cl)Cl` (configuration not stated): the GFP+ MAC1+ double positive stood at 6.8%. Consider `O=[N+]([O-])c1cc([N+](=O)[O-])c(Nc2ccccn2)c([N+](=O)[O-])c1`, for which the GFP+ MAC1+ double positive was found to be 1.1%. Under `O=[N+]([O-])C1C(O)C(O)C([N+](=O)[O-])C(O)C1O` (configuration not stated) stands 1.3%; under `COc1ccccc1OP(C)(=O)Nc1ccc(C)cc1C` (configuration not stated), 0.6%. `CP(=O)(Nc1ccccn1)Oc1ccccc1` (configuration not stated) gave a GFP+ MAC1+ double positive of 1.2%.
